In publication PMC7862700:
The list shows a part of the results, in another mix than the full data. At the low end of the ranking the order means little.

target: T1, ELK1 (UniProt P19419); assay: DAPPL (digital affinity profiling via proximity ligation, sequencing); conditions: 10 mM Tris-HCl pH 7.5, 50 mM NaCl, 1 mM DTT, 4% glycerol, room temperature, 30 min; GST-TFs on glutathione beads, 16-mer random dsDNA library, 0.1% …; high values mean tight binding; double strand, one strand shown; scale: fold enrichment (6-mer frequency, TF over GST control)
T1 sequence: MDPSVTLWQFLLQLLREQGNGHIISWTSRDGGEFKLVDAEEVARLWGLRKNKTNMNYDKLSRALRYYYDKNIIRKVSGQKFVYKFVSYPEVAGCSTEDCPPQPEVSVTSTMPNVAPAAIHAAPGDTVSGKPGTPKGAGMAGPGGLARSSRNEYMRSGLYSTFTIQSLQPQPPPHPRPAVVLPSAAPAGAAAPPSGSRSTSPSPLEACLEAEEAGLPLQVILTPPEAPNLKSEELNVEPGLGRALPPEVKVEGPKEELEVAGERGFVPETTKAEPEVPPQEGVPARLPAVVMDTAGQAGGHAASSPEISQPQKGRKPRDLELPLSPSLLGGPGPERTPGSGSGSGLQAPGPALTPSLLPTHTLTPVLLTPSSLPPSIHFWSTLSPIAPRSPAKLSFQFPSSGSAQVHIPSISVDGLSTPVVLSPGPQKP

Sequence | binding signal
AGCCCC | 1.01
TTTTCA | 1.19
TCACAC | 1.19
AACATG | 1.21
TCTCGA | 1.34
AAGTGG | 1.19
CCTCCC | 1.43
TTTATG | 1.21
TAACAA | 1.22
CTGTCA | 1.11
TCTCCC | 1.68
CCATTC | 1.09
ATACTG | 1.09
CATTTC | 1.86
ACTCCT | 1.55
AAAGCG | 0.996
GCGCTC | 1.2
CTCTGC | 1.6
ATATGT | 1.08
GATATC | 1.6

Sequence | binding signal
GTCTTT | 1.21
TACTGG | 0.948
CGCTTT | 1.1
TTCAAG | 1.22
ATTTGG | 1.33
ATGCGG | 1.22
GCTCGC | 1.29
ACCCTA | 1.36
CATATT | 1.17
TTTTGC | 1.39
CTAGTT | 1.4
CGACAC | 1.14
CTCCCG | 1.56
AGATCC | 1.12
CTCATT | 1.32
CTGTAA | 0.956
GCTTAT | 1.21
CCCGCC | 1.75
TCTGAT | 1.21

A second format for part of the listing above:
Sequence,binding signal
GCTCGC,1.29
CATATT,1.17
